Values of other authors as cited in US20220288000A1, “CHEWABLE FORMULATIONS” (HOFFMAN TECHNOLOGIES LLC, priority 2021, published 2022).
Residues, ends and D or L forms follow the SMILES beside them.

Conditions: relative to sucrose

Compound | level of sweetness as percent of sucrose | sweetness, times as sweet as sucrose
OC[C@@H](O)[C@@H](O)[C@H](O)[C@H](O)CO [Mannitol] | about 50% | –
COC(=O)[C@H](Cc1ccccc1)NC(=O)[C@H](CC(=O)O)NCCCc1ccc(OC)c(O)c1 [advantame] | – | about 20 thousand
O=C[C@H](O)[C@@H](O)[C@H](O[C@@H]1O[C@H](CO)[C@H](O)[C@H](O)[C@H]1O)[C@H](O)CO [Lactose, 4-O-β-D-galactopyranosyl-D-glucose] | about 15% | –
O=C1NS(=O)(=O)c2ccccc21 [saccharin] | – | 300 to 500 times
COC(=O)[C@H](Cc1ccccc1)NC(=O)[C@@H](N)CC(=O)O [Aspartame, Methyl L-α-aspartyl-L- phenylalaninate] (H-Asp-Phe-OMe) | – | 180 to 200 times
